Measurements taken from PMC8137146.
These are yes or no findings as the source states them, for the method shown. In cells and extracts the contact can be indirect. Some results given as binding are weak or reduced against the parent protein; the word gives no strength.

The chains behind the UniProt entries cited, without tags or fusion partners.
UniProt Q9UPT8: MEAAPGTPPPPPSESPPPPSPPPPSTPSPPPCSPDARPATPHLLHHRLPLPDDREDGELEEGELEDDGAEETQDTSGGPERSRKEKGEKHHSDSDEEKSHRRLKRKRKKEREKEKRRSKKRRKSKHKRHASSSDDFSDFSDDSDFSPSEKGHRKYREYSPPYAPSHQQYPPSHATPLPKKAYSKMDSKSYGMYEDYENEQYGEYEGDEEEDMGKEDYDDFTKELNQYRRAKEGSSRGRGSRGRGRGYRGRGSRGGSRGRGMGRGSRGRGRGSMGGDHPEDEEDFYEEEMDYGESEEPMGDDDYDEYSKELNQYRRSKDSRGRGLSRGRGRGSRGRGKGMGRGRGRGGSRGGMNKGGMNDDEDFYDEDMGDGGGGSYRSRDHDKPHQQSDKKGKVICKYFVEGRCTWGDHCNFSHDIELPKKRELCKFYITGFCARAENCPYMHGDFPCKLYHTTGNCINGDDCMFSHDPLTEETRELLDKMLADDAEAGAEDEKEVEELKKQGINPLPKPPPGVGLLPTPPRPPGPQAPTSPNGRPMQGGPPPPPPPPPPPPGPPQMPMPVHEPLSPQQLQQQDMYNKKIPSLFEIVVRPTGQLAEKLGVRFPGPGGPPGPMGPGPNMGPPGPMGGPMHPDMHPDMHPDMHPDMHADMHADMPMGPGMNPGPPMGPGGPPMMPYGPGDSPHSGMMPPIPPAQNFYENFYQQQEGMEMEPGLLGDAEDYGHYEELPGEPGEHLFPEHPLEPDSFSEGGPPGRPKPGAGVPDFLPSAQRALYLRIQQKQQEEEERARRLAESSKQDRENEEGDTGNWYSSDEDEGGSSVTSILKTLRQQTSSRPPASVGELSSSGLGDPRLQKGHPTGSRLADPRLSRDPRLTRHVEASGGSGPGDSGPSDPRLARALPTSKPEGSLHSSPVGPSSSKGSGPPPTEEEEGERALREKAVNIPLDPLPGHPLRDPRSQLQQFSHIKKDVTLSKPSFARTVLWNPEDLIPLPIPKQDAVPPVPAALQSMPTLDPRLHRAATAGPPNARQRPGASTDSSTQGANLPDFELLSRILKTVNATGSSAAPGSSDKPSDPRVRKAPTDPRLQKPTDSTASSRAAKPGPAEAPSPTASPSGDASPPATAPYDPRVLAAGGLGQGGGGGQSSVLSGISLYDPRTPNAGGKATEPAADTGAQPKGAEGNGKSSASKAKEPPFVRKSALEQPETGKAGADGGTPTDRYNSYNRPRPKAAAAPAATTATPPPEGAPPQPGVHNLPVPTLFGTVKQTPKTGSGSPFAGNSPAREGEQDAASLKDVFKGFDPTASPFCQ
UniProt Q6UXN9: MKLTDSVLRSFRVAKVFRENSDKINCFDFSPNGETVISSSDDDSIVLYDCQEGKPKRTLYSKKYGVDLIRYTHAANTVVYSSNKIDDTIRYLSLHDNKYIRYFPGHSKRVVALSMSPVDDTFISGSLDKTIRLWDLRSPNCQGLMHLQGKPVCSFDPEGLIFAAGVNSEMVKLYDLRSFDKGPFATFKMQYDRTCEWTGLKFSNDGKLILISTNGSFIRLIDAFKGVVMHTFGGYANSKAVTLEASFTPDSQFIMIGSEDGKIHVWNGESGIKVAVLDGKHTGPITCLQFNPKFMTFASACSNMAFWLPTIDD

Target: ZC3H4-GFP (human) (UniProt Q9UPT8)
Test: co-IP; GFP trap: ZC3H4-GFP captured from whole cell lysate on GFP nanobody-coupled magnetic agarose, 1 hr at 4°C; lysis buffer 150 mM NaCl, 2.5 mM MgCl2, 20 mM Tris HCl pH 7.5, 1% Triton X-100, Benzonase; 5 washes; western blot for WDR82 and GFP; untransfected cells as negative control

- binding: binds
Substance: WDR82 (from UniProt Q6UXN9 1-313)
